Test results reported in publication PMC7705377.
No constants are given. Whether binding was seen depends on the method and setting. In cells and extracts the contact can be indirect. Some entries that bind do so weakly or less than the wild type.

By UniProt entry, the sequences of proteins in these tests, tags left out. Residues count along the entry.
UniProt Q99MB1, residues 26-905: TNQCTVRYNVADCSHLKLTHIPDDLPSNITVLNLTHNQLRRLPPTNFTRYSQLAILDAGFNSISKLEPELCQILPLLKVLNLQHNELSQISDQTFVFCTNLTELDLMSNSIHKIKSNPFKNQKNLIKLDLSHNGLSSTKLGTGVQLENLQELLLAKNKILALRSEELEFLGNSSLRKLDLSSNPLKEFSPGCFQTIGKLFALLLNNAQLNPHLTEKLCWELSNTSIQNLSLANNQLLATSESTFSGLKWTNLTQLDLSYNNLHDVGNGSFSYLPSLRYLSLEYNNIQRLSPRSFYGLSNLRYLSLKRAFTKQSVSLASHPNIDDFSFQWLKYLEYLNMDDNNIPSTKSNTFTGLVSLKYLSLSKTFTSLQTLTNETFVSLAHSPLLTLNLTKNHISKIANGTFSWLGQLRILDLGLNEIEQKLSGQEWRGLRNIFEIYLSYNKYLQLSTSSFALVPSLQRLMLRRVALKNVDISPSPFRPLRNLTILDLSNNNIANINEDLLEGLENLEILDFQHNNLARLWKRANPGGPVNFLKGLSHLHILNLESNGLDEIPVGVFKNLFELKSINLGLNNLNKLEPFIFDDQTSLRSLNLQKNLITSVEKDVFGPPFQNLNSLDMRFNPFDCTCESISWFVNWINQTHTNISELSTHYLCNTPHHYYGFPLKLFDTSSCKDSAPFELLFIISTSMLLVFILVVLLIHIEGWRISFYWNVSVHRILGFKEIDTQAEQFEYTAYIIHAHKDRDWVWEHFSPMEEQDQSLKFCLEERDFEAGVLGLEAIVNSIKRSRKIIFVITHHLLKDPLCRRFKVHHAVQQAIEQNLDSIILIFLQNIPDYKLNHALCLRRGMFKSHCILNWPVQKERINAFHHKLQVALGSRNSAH

Tests used:
[1] = molecular target: T1, early endosome antigen 1 (mouse (endogenous in C8-D1A)) (UniProt Q8BL66); assay: proximity ligation; Duolink in situ PLA (indirect, DNA-labelled secondary antibodies; signal when they are no more than 40 nm apart) in fixed C8-D1A astrocytes, untreated or stimulated with poly(I:C) for 1 h (EEA1) or 24 h (Rab7, LAMP1)
T1 sequence: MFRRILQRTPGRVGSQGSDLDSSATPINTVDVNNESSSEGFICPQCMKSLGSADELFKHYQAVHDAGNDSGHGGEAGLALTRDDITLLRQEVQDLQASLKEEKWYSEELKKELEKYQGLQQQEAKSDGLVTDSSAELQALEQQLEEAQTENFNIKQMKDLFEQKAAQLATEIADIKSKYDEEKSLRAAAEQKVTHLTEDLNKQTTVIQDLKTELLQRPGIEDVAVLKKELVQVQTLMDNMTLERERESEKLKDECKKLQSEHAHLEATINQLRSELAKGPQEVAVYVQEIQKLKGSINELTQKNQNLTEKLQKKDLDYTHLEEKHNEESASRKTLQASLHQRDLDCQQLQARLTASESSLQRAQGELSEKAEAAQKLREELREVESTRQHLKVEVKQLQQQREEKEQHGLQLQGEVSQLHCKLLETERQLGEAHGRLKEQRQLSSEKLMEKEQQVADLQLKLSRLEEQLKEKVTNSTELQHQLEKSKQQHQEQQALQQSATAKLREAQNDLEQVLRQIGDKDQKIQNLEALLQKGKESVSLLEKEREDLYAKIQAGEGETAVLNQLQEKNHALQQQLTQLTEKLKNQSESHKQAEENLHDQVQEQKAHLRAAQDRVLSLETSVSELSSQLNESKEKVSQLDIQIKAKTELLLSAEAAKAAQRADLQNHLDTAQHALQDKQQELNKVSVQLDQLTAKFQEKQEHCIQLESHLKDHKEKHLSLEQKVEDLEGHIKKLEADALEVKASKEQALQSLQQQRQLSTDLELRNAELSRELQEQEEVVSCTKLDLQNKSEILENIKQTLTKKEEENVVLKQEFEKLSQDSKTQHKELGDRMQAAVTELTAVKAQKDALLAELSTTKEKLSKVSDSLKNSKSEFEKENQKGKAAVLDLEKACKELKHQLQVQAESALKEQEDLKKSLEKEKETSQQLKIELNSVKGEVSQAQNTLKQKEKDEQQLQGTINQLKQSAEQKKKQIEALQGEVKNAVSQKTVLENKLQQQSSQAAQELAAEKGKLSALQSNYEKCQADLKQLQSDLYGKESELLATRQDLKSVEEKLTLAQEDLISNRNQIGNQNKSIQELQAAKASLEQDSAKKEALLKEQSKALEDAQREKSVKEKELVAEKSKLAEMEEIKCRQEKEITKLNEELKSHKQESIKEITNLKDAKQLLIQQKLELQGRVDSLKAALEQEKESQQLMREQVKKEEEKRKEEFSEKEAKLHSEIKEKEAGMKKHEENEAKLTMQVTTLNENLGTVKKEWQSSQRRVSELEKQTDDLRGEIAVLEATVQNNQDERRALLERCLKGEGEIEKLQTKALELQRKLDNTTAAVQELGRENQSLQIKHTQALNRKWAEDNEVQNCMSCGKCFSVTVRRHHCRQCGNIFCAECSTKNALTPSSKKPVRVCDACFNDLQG

[2] = molecular target: T2, lysosome-associated membrane protein 1 (mouse (endogenous in C8-D1A)) (UniProt P11438); assay: as above
T2 sequence: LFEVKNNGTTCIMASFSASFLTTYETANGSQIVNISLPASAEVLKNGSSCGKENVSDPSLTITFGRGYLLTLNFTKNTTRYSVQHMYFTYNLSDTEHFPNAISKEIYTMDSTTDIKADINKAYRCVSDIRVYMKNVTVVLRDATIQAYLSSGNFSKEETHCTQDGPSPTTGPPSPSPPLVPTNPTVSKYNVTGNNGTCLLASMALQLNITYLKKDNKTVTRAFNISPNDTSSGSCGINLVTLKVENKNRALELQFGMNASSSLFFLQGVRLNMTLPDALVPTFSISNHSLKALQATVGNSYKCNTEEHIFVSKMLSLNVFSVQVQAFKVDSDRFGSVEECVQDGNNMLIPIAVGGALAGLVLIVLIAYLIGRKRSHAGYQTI

Substance: Toll-like receptor 3 (from UniProt Q99MB1 26-905)
- binding [1]: binds
- binding [2]: binds
